Results from PubChem BioAssay AID504834 (National Center for Advancing Translational Sciences (NCATS), 2011).
The whole screen tested about 320,000 compounds, of which about 22,000 (6.9%) were called active. This list was built around the results that the source calls inconclusive (neither active nor inactive); the mix of calls is not that of the screen. Calls follow the shape of the dose curve; as a rule, active = well fitted inhibition curve with a large enough effect; inconclusive = small, poorly fitted or top-dose-only effect, or another doubt; inactive = no such curve, though single readings can be large or run the other way. A potency beside an inconclusive call is a rough fit, not a confirmed value.

assay: Primary qHTS for delayed death inhibitors of the malarial parasite plastid, 96 hour incubation; settings: P. falciparum luciferase reporter growth; series mostly up to 28.7 µM; activity change, negative = inhibition: at the top concentration
Method in brief: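 P. falciparum expressing integrated firefly luciferase, in erythrocytes at 2% hematocrit, 0.05% parasitemia, incubated with compounds 96 h at 37 C, 5% CO2. Growth inhibition read as loss of luminescence; two-generation exposure targets delayed-death apicoplast inhibitors.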
% is scaled to controls: 0 for no effect and ±100 for the full control effect; potency is read from the fitted curve at half-maximal effect.

| SMILES | Potency | activity change, negative = inhibition |
| --- | --- | --- |
| CCn1c(=O)c2c(nc(SCC(=O)NC3CCCC3)n2C)n(C)c1=O | inconclusive: 10.4 µM [inhibitor, partial curve, poor fit] | – |
| COc1cc2c(c(OCC(=O)NC(C)C)c1)C(=O)O[C@@H](C)CCCC(=O)CCCCC2 | inconclusive: 3.29 µM [inhibitor, full curve] | – |
| CC(C)OC(=O)NCCOC(=O)Nc1ccc(Cl)c(Cl)c1 | – | inactive: 52.6% |
| COc1cc2ncnc(NCc3cccc(F)c3F)c2cc1OC | inconclusive: 13.1 µM [inhibitor, single point] | – |
| COc1ccccc1C(CNC(=O)C(C)(C)Oc1ccc(Cl)cc1)N1CCCC1 (centres undefined) | inconclusive: 9.28 µM [inhibitor, partial curve] | – |
| CC(C)c1ccc(NC(=O)N2CCOCC2)cc1 | – | inactive: 102% |
| CC(=O)N1CCc2c(sc(NC(=O)Cc3ccc(F)cc3)c2C(N)=O)C1 | inconclusive: 9.28 µM [inhibitor, partial curve, poor fit] | – |
| O=C(Nc1ccccc1C(=O)N1CCCC1)C1COc2ccccc2O1 (centres undefined) | inconclusive: 4.15 µM [inhibitor, partial curve, poor fit] | – |
| COc1ccc(CN(C)C(=O)/C=C/c2ccc(S(=O)(=O)N3CCCCCC3)cc2)cc1 | active: 13.1 µM | – |
| Oc1ccc(N2CCN(C(c3cccs3)c3nnnn3CCc3ccccc3)CC2)cc1 (centres undefined) | – | inactive: 58.2% |
| COCCCNC(=O)CN1C(=O)/C(=C/c2ccccc2)Sc2ccccc21 | – | inactive: -11.8% |
| O=C(NCCOc1ccccc1F)c1cc([N+](=O)[O-])ccc1N1CCOCC1 | inconclusive: 18.5 µM [inhibitor, single point] | – |
| Cc1ccc(C)c(/C=N/Nc2nc3ccccc3c(=O)n2O)c1 | – | inactive: 7.34% |
| C#CC(CC)(CC)NC(=O)c1ccc(Br)s1 | inconclusive: 4.15 µM [inhibitor, single point] | – |
| CN(/N=C/C=C/c1ccccc1)c1cc(=O)n(C)c(=O)[nH]1 | inconclusive: 8.28 µM [inhibitor, partial curve, poor fit] | – |
| COc1ccc(C(=O)c2c3ccc([N+](=O)[O-])cc3[n+]([O-])n2CCCN)cc1 | inconclusive: 11.7 µM [inhibitor, single point] | – |
| C=CCN1C2CCCC1CC(NC(=S)Nc1ccc(Cl)cc1)C2 (centres undefined) | – | inactive: 28.8% |
| C/C(=N/NC(=O)c1cccs1)c1ccc(NC(=O)COc2ccc(Cl)cc2Cl)cc1 | – | inactive: -2.33% |
| CCOC(=O)N1CCN(Cc2nc3cc(NC(=O)C(C)C)ccc3n2CC)CC1 | – | inactive: 13.6% |
| Cc1ccc(NC(=S)Nc2ccccn2)c(C)c1 | inconclusive: 11.7 µM [inhibitor, single point] | – |
| COC(=O)c1ccc(-n2ccnc2)cc1 | – | inactive: 6.81% |
| CC(=O)Nc1ccccc1OCc1nnc(-c2ccc(Cl)cc2)o1 | – | inactive: 41.1% |
| CCN(CC)C(=O)COc1ccc2c(-c3ccc(OC)cc3)cc(=O)oc2c1 | inconclusive: 2.33 µM [inhibitor, partial curve, poor fit] | – |

Some of the entries so far, bar-delimited.
SMILES | Potency | activity change, negative = inhibition
COc1cc2c(c(OCC(=O)NC(C)C)c1)C(=O)O[C@@H](C)CCCC(=O)CCCCC2 | inconclusive: 3.29 µM [inhibitor, full curve] | –
CC(C)OC(=O)NCCOC(=O)Nc1ccc(Cl)c(Cl)c1 | – | inactive: 52.6%
COc1cc2ncnc(NCc3cccc(F)c3F)c2cc1OC | inconclusive: 13.1 µM [inhibitor, single point] | –
COc1ccccc1C(CNC(=O)C(C)(C)Oc1ccc(Cl)cc1)N1CCCC1 (centres undefined) | inconclusive: 9.28 µM [inhibitor, partial curve] | –
CC(C)c1ccc(NC(=O)N2CCOCC2)cc1 | – | inactive: 102%
CC(=O)N1CCc2c(sc(NC(=O)Cc3ccc(F)cc3)c2C(N)=O)C1 | inconclusive: 9.28 µM [inhibitor, partial curve, poor fit] | –
O=C(Nc1ccccc1C(=O)N1CCCC1)C1COc2ccccc2O1 (centres undefined) | inconclusive: 4.15 µM [inhibitor, partial curve, poor fit] | –
COc1ccc(CN(C)C(=O)/C=C/c2ccc(S(=O)(=O)N3CCCCCC3)cc2)cc1 | active: 13.1 µM | –
Oc1ccc(N2CCN(C(c3cccs3)c3nnnn3CCc3ccccc3)CC2)cc1 (centres undefined) | – | inactive: 58.2%
Cc1ccc(C)c(/C=N/Nc2nc3ccccc3c(=O)n2O)c1 | – | inactive: 7.34%
C#CC(CC)(CC)NC(=O)c1ccc(Br)s1 | inconclusive: 4.15 µM [inhibitor, single point] | –
CN(/N=C/C=C/c1ccccc1)c1cc(=O)n(C)c(=O)[nH]1 | inconclusive: 8.28 µM [inhibitor, partial curve, poor fit] | –
COc1ccc(C(=O)c2c3ccc([N+](=O)[O-])cc3[n+]([O-])n2CCCN)cc1 | inconclusive: 11.7 µM [inhibitor, single point] | –
C=CCN1C2CCCC1CC(NC(=S)Nc1ccc(Cl)cc1)C2 (centres undefined) | – | inactive: 28.8%
C/C(=N/NC(=O)c1cccs1)c1ccc(NC(=O)COc2ccc(Cl)cc2Cl)cc1 | – | inactive: -2.33%
CCOC(=O)N1CCN(Cc2nc3cc(NC(=O)C(C)C)ccc3n2CC)CC1 | – | inactive: 13.6%
Cc1ccc(NC(=S)Nc2ccccn2)c(C)c1 | inconclusive: 11.7 µM [inhibitor, single point] | –
COC(=O)c1ccc(-n2ccnc2)cc1 | – | inactive: 6.81%
CCN(CC)C(=O)COc1ccc2c(-c3ccc(OC)cc3)cc(=O)oc2c1 | inconclusive: 2.33 µM [inhibitor, partial curve, poor fit] | –

(list continues)

| SMILES | Potency | activity change, negative = inhibition |
| --- | --- | --- |
| CC(C)OC(=O)C(C#N)c1nc2ccccc2nc1N1CCN(Cc2ccccc2)CC1 (centres undefined) | inconclusive: 9.28 µM [inhibitor, partial curve, poor fit] | – |
| COc1ccc(CN(C)C(=O)COC(=O)c2c(-c3ccccc3Cl)noc2C)cc1 | inconclusive: 9.28 µM [inhibitor, partial curve, poor fit] | – |
| COc1ccc(C(CNC(=O)c2ccc(S(=O)(=O)N(C)C)cc2)N2CCCC2)cc1 (centres undefined) | inconclusive: 10.4 µM [inhibitor, single point] | – |
| Cn1c(SCC(=O)Nc2ccc(NC(=O)c3ccccc3)cc2)nnc1-c1ccncc1 | inconclusive: 18.5 µM [inhibitor, single point] | – |
| CCOc1ccc(NC(=O)CN2CC(c3ccccc3)CC2=O)cc1 (centres undefined) | – | inactive: -28.4% |
| COc1ccc(C(=O)N(Cc2sccc2C)C2CCS(=O)(=O)C2)cc1 (centres undefined) | inconclusive: 7.38 µM [inhibitor, partial curve, poor fit] | – |
| CCOc1ccc(NC(=O)CS(=O)(=O)c2cn(CC)c3ccccc23)cc1 | inconclusive: 13.1 µM [inhibitor, partial curve, poor fit] | – |
| Cc1cc(C)n(CCC(=O)N/N=C/c2c(O)ccc3ccccc23)n1 | inconclusive: 5.22 µM [inhibitor, partial curve, poor fit] | – |
| COc1cccc(NC(=O)[C@H](Cc2c[nH]c3ccccc23)NC(=O)[C@@H]2Cc3ccccc3CN2)c1 | active: 11.7 µM | – |
| CC(NC(=S)Nc1ccc(Cl)cc1)C(c1ccccc1)N1CCOCC1 (centres undefined) | active: 10.4 µM | – |
| O=C(CCC(=O)N1CCN(c2ccc(O)cc2)CC1)c1ccc(Br)cc1 | active: 9.28 µM | – |
| O=C(CSc1nc(N2CCOCC2)nc(N2CCOCC2)n1)Nc1ccc(Cl)cc1Cl | inconclusive: 18.5 µM [inhibitor, single point] | – |
| O=C(O)c1ccc(Nc2nc(-c3ccc([N+](=O)[O-])cc3)nc3ccccc23)cc1 | – | inactive: -0.0393% |
| CNC(=O)C1CN(C(=O)c2cccc(S(=O)(=O)N3c4ccccc4CC3C)c2)c2ccccc2O1 (centres undefined) | inconclusive: 14.7 µM [inhibitor, partial curve, poor fit] | – |
| CCNc1nc(NC(C)C)nc(NS(=O)(=O)c2ccc(C)cc2)n1 | – | inactive: 338% |
| Cc1ccc(S(=O)(=O)Nc2ccccc2CNc2ncc(Br)cc2Br)cc1 | inconclusive: 11.7 µM [inhibitor, single point] | – |
| COc1ccc(-n2cc(-c3ccccc3)c3c(=S)nc[nH]c32)cc1 | inconclusive: 10.4 µM [inhibitor, partial curve] | – |
| O=[N+]([O-])c1ccc(OCCn2cnc3ccccc32)cc1 | – | inactive: 7.79% |
| COc1cc(C=C2C(=O)NC(=O)NC2=O)cc(OC)c1OC | inconclusive: 16.5 µM [inhibitor, single point] | – |
| O=C(COC(=O)c1ccc(Cl)nc1)Nc1ncc(Cl)cc1Cl | – | inactive: 110% |
| CN(C(=O)COC(=O)c1ccc(=O)n(Cc2ccccc2)n1)C1CCCCC1 | – | inactive: 0.386% |
| O=C(NCc1ccc2c(c1)OCO2)C1CCCCC1 | inconclusive: 13.1 µM [inhibitor, partial curve, poor fit] | – |
| CCOC(=O)C1CCN(C(=O)c2cc3cc(Cl)ccc3[nH]2)CC1 | inconclusive: 9.28 µM [inhibitor, single point] | – |

| SMILES | Potency | activity change, negative = inhibition |
| --- | --- | --- |
| Cc1cccc(N2CCN(CC(=O)Nc3nccs3)CC2)c1C | inconclusive: 13.1 µM [inhibitor, partial curve, poor fit] | – |
| CN1CCN(C(c2ccc(C(F)(F)F)cc2)c2ccc3cccnc3c2O)CC1 (centres undefined) | inconclusive: 18.5 µM [inhibitor, single point] | – |
| COCC(=O)N/N=C(\C)CC(=O)NCc1ccco1 | inconclusive: 18.5 µM [inhibitor, single point] | – |
| COc1cccc(CNC(=O)COc2cc(O)c3c(c2)OC(C)(C)CC3=O)c1 | inconclusive: 7.38 µM [inhibitor, partial curve, poor fit] | – |
| CS(=O)(=O)N(CC(=O)Nc1cc(Cl)ccc1Cl)c1ccccc1Cl | inconclusive: 18.5 µM [inhibitor, single point] | – |
| Cc1ccc(C(Sc2ccccc2)C(Cn2cncn2)C(=O)c2ccccc2)cc1 (centres undefined) | active: 9.28 µM | – |
| O=[N+]([O-])c1ccc(NC(=S)N2CCN(c3ccccc3)CC2)cc1 | – | inactive: 15.7% |
| NS(=O)(=O)c1ccc(NC(=O)COC(=O)CCNC(=O)NC23CC4CC(CC(C4)C2)C3)cc1 | inconclusive: 18.5 µM [inhibitor, single point] | – |
| COc1ccc(OC)c(NC(=O)Nc2nnc(N3CCC(C)CC3)s2)c1 | inconclusive: 16.5 µM [inhibitor, single point] | – |
| COc1ccc(S(=O)(=O)Cc2ccc(C(=O)NCc3ccc(F)cc3)o2)cc1 | inconclusive: 18.5 µM [inhibitor, single point] | – |
| CCOc1ccc(CN2CCN(C(=O)Cc3ccccc3)CC2)cc1 | active: 6.57 µM | – |
| CCCCOC(=O)C[N+](C)(C)CCOC1CC2CCC1(C)C2(C)C (centres undefined) | inconclusive: 4.65 µM [inhibitor, partial curve, poor fit] | – |
| CCCc1ccc(NC(=O)C2CCCN(c3cnccn3)C2)cc1 (centres undefined) | inconclusive: 3.7 µM [inhibitor, single point] | – |
| CCN(CC)S(=O)(=O)c1cc(C)c(C)cc1OCC(=O)NC1CCCC1 | – | inactive: 9.01% |
| O=C(c1c(F)cccc1F)N(Cc1ccccc1)Cc1ccccc1 | inconclusive: 18.5 µM [inhibitor, single point] | – |
| COc1ccc(C(=O)/C=C/c2ccccc2)c(OC)c1 | inconclusive: 20.8 µM [inhibitor, single point] | – |
| COc1cc2c(cc1O)CCN[C@@]21CS[C@H]2c3c(OC(C)=O)c(C)c4c(c3C(COC1=O)N1C2C2c3c(cc(C)c(OC)c3O)CC([C@@H]1O)N2C)OCO4 (some centres undefined) | active: 2.13 µM | – |
| O=C(Nn1cnnc1)c1cc(Br)ccc1Cl | – | inactive: 16.3% |
| CCN(c1ccccc1)S(=O)(=O)c1ccc(Cl)c(NC(=O)CN2C(=O)NC3(CCCC3)C2=O)c1 | – | inactive: -22.9% |
| O=C(NCc1ccccc1)c1csc2c1CCCC2 | – | inactive: 51.2% |
| COc1cc2c(-c3ccc4cc[nH]c4c3)c(-c3ccc(C#N)cc3)oc(=O)c2cc1OC | inconclusive: 7.38 µM [inhibitor, partial curve, poor fit] | – |
| O=C(COC(=O)c1ccc(S(=O)(=O)N2CCCC2)cc1)Nc1cccc(F)c1 | inconclusive: 18.5 µM [inhibitor, single point] | – |
| CN(C)C(CNS(=O)(=O)c1ccc(Br)cc1)c1cccnc1 (centres undefined) | inconclusive: 11.7 µM [inhibitor, single point] | – |
